Measurements reported in patent publication US8354246B2, “Non-MCCJ25-related lariat-peptide inhibitors of bacterial RNA polymerase” (priority 2006, dated 2013).
In brackets after ≈: the same amount, converted by molar mass. Several values for one entry are separate records, joined by “and”; a condition that tells them apart may be missing. Equal values may be shown once. Read-outs that look alike come from different tables or passages of the source. Part of at least one peptide drawing is inferred or uncertain, most often the ends. Some results were stated once for a whole list of compounds, not compound by compound. Bridge positions count the residues as written; N and C are the ends. Peptide text beside a SMILES is read from it.

The chains behind the UniProt entries cited, without tags or fusion partners.
UniProt P0A8T7, whole entry: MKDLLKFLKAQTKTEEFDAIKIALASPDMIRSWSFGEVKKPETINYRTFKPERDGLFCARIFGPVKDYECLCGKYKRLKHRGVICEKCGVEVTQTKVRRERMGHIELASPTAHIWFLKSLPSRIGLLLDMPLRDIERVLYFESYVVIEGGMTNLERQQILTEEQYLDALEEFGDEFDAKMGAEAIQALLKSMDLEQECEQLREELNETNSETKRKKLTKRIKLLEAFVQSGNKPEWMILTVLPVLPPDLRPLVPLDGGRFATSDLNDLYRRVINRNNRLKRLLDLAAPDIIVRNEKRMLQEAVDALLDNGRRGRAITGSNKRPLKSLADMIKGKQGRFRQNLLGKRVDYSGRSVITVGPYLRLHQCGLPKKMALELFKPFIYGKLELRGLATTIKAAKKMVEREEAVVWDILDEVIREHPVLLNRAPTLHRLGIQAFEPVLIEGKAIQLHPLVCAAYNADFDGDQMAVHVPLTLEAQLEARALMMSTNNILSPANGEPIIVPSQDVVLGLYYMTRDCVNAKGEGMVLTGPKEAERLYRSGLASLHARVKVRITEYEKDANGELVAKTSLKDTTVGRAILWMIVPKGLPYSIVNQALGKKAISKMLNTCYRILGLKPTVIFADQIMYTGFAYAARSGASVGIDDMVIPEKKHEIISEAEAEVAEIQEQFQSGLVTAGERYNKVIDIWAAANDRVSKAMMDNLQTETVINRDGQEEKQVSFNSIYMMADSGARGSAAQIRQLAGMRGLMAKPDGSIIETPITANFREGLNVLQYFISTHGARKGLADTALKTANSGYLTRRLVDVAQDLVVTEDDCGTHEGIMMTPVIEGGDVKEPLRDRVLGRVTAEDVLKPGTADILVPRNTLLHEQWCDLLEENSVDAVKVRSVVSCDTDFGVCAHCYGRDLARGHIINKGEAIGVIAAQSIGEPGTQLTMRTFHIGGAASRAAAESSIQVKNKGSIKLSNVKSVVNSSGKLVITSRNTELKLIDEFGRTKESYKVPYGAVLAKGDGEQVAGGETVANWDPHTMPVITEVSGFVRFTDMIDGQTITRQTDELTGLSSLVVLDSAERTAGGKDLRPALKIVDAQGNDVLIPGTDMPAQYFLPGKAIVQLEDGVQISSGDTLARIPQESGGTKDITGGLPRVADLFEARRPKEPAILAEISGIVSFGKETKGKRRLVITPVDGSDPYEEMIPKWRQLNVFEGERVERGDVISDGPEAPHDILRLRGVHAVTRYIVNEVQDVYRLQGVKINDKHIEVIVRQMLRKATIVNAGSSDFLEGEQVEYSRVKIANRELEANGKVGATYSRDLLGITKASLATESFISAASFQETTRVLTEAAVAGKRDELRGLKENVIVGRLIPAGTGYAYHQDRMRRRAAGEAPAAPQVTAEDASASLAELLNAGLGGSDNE
UniProt Q8RQE8, whole entry: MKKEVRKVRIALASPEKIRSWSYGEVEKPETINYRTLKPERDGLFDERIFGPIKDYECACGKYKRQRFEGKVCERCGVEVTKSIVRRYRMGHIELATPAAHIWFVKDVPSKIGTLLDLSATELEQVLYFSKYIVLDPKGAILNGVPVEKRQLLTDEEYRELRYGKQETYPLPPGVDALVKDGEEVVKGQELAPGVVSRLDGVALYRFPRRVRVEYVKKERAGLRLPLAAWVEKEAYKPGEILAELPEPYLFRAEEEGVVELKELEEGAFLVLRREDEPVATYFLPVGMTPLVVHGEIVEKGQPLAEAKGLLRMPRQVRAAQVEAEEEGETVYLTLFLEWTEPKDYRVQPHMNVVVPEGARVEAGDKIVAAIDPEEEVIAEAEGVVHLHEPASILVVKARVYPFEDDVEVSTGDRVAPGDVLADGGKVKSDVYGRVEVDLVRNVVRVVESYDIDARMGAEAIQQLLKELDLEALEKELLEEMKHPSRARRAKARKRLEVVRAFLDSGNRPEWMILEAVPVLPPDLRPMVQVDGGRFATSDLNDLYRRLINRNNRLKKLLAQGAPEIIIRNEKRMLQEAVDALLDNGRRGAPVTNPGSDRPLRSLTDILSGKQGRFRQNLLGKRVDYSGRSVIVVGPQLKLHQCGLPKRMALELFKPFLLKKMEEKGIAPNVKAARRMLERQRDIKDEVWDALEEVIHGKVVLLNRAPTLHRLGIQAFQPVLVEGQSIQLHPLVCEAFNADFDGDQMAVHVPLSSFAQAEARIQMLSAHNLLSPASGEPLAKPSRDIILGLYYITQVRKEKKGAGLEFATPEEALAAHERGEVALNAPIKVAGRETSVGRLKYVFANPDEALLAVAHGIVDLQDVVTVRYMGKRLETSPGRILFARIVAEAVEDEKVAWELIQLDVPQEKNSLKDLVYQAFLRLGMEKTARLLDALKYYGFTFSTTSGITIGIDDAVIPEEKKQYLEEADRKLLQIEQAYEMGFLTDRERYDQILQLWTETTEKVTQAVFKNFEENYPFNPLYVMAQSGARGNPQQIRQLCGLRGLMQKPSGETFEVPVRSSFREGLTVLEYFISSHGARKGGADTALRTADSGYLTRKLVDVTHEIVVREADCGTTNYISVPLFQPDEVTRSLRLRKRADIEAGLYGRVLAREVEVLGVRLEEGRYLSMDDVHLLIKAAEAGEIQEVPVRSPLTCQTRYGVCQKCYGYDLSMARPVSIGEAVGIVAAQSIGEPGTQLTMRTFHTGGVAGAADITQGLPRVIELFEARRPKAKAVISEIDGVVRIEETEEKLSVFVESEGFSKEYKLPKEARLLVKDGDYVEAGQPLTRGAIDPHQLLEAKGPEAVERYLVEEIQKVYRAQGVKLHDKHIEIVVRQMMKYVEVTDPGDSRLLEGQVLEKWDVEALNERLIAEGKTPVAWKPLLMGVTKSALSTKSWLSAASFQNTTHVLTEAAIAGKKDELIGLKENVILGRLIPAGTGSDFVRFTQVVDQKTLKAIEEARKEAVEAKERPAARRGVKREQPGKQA
UniProt P37871, whole entry: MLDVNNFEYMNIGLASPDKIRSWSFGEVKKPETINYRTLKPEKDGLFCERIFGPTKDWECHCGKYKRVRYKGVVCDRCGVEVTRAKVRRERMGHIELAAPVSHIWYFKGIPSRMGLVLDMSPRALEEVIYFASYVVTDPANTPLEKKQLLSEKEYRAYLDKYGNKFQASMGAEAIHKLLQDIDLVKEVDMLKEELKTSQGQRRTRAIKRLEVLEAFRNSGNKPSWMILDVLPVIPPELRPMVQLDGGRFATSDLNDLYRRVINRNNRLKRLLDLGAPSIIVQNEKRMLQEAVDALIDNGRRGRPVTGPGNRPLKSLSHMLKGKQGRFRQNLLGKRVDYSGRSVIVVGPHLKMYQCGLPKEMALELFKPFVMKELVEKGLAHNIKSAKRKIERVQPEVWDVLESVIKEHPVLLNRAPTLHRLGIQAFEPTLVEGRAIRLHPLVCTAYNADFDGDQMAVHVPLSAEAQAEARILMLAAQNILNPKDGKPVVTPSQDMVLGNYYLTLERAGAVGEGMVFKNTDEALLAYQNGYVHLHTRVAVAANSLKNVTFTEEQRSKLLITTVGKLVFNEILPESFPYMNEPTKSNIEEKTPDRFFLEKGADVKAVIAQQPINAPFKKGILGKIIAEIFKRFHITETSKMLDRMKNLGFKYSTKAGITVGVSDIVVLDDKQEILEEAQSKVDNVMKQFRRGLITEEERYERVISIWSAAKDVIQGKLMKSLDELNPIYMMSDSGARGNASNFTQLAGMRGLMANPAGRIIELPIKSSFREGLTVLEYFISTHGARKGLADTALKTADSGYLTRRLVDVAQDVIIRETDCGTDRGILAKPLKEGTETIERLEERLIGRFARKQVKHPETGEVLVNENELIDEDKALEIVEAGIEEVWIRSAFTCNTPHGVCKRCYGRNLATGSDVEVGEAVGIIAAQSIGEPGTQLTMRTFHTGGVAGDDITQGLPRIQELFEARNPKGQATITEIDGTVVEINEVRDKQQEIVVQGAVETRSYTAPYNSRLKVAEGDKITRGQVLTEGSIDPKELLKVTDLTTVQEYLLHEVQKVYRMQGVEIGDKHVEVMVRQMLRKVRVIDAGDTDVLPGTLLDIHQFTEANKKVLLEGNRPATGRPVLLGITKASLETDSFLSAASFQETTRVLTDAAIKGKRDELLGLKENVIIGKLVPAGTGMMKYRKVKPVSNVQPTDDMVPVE
UniProt Q81J47, whole entry: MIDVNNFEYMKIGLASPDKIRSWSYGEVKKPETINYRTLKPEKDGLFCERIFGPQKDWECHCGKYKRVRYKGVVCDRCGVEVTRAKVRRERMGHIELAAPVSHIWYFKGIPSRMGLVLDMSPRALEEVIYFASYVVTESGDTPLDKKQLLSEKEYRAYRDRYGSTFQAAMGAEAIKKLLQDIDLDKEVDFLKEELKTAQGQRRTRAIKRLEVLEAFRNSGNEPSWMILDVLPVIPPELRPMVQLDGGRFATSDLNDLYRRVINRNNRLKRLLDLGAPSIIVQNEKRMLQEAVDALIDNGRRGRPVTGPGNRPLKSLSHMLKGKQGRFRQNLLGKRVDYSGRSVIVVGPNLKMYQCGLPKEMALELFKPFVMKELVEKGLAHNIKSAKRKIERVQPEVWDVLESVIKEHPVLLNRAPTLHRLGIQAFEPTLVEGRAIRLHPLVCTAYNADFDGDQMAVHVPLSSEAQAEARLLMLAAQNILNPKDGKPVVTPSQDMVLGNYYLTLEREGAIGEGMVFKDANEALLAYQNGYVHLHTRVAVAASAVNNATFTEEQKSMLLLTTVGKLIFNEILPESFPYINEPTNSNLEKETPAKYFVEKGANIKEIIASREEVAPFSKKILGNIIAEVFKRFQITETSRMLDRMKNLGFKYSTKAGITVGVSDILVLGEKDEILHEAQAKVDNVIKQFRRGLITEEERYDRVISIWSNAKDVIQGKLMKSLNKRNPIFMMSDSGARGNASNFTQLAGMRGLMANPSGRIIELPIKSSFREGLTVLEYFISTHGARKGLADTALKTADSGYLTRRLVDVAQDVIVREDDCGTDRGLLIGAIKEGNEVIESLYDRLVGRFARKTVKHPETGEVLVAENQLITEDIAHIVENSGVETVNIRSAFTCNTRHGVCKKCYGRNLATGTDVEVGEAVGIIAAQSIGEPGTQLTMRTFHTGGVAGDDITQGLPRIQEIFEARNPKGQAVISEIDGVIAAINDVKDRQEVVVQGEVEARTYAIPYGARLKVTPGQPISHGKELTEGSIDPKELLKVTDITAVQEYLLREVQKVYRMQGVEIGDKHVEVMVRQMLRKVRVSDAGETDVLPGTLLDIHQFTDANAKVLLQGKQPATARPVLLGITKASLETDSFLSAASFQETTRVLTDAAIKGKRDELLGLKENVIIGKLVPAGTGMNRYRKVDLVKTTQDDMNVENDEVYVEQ

What was measured:
[1] = biological target: T1, Escherichia coli σ^70 RNAP holoenzyme (Escherichia coli, UniProt P0A8T7); assay: fluorescence-detected abortive initiation assay; type: biochemical
T1 construct: purchased Epicentre, Inc
Method: (§1) Following incubation of reaction mixtures for 5 min at 22° C., 1 μl 1.1 μM DNA fragment lacUV5-12 (Mukhopadhyay et al. (2001) Cell 106, 453-463) was added. Following further incubation of reaction mixtures for […] at 37° C., 0.5 μl 1 mg/ml heparin (Sigma, Inc.; omitted in experiments with T. thermophilus RNAP) and 0.5 μl of 2.75 mM (γ-AmNS)UTP (Molecular Probes, Inc.) were added, and reaction mixtures were transferred to sub-micro fluorometer cuvettes (Starna Cells, Inc.). Following further incubation of reaction mixtures for 2 min at 37° C., RNA synthesis was initiated by addition of 2 μl 11 mM ApA (Sigma, Inc.), and fluorescence emission intensity was monitored for 5 min at 37° C. [excitation wavelength=360 nm and emission wavelength=500 nm; excitation and emission slit widths=4 nm; QuantaMaster QM1 spectrofluorometer (PTI, Inc.)]. The quantity of UMP incorporated into RNA was determined from the quantity of (γ-AmNS) UTP consumed, which, in turn, was calculated as follows (Schlageck et al. 1979): (γ-AmNS)UTPconsumed=[(γ-AmNS)UTP0](Ft−F0)/(12.4×F0) where (γ-AmNS)UTP0 is the quantity of (γ-AmNS)UTP at time 0, F0 is the fluorescence emission intensity at time 0, and Ft is the fluorescence emission intensity at time t.

[2] = biological target: T2, Thermus thermophilus σ^A RNAP holoenzyme (Thermus thermophilus, UniProt Q8RQE8); assay: fluorescence-detected abortive initiation assay; type: biochemical
T2 construct: made in house
Method: as §1

[3] = biological target: T1, Escherichia coli σ^70 RNAP holoenzyme; assay: radioisotope-detected abortive initiation assay; type: biochemical
[4] = biological target: T3, Bacillus subtilis σ^A RNAP holoenzyme (Bacillus subtilis, UniProt P37871); assay: radioisotope-detected abortive initiation assay; type: biochemical
T3 construct: made in house

[5] = biological target: T4, Bacillus cereus σ^A RNAP holoenzyme (Bacillus cereus, UniProt Q81J47); assay: radioisotope-detected abortive initiation assay; type: biochemical
T4 construct: made in house

[6] = biological target: T1, Escherichia coli σ^70 RNAP holoenzyme; assay: radioisotope-detected run-off transcription assay; type: biochemical
[7] = biological target: T2, Thermus thermophilus σ^A RNAP holoenzyme; assay: radioisotope-detected run-off transcription assay; type: biochemical
[8] = test system: Escherichia coli strain D21f2/tolC; assay: inhibition of bacterial growth, solid-medium assay; type: cell-based; settings: spotted 2.5 μl aliquots, 10 h at 37° C., tolC and rfa mutations
[9] = test system: Escherichia coli strain DH5α; type: cell-based; settings: solid-medium assay; spotted 2.5 μl aliquots; 10 h at 37° C.
[10] = test system: Bacillus subtilis strain MH5636; assay: inhibition of bacterial growth, solid-medium assay; type: cell-based; settings: spotted 2.5 μl aliquots, 10 h at 37° C.
[11] = test system: Bacillus cereus strain VKM-B771; assay: inhibition of bacterial growth, solid-medium assay; type: cell-based; settings: spotted 2.5 μl aliquots, 10 h at 37° C.
[12] = read-out: IC50 Escherichia coli RNAP, lacUV5-12 DNA fragment, 37° C.
[13] = read-out: IC50 Escherichia coli RNAP, T7 A1 promoter
[14] = read-out: IC50 Bacillus subtilis RNAP, Bacillus cereus hlyII promoter
[15] = read-out: IC50 Bacillus cereus RNAP, Bacillus cereus hlyII promoter

| Compound | IC50 [1, 12] | IC50 [3, 13] | IC50 [4, 14] | IC50 [5, 15] | MIC Escherichia coli strain D21f2/tolC [8] | MIC Escherichia coli strain DH5α [9] | MIC Bacillus subtilis strain MH5636 [10] | MIC Bacillus cereus strain VKM-B771 [11] | also measured |
| --- | --- | --- | --- | --- | --- | --- | --- | --- | --- |
| CC[C@H](C)[C@@H]1NC(=O)CNC(=O)[C@H](CC(C)C)NC(=O)[C@@H]2CSSC[C@@H]3NC(=O)CNC(=O)[C@H](C)NC(=O)[C@H](Cc4ccccc4)NC(=O)[C@H](CC(=O)N2)NC(=O)[C@H](CC(N)=O)NC(=O)[C@H](CSSC[C@@H](C(=O)N[C@@H](Cc2ccccc2)C(=O)N[C@@H](Cc2c[nH]c4ccccc24)C(=O)O)NC(=O)[C@H](C(C)C)NC(=O)[C@H](C(C)C)NC(=O)[C@H](C)NC(=O)[C@H](Cc2ccc(O)cc2)NC(=O)CNC3=O)NC(=O)[C@H](CO)NC(=O)CNC1=O [siamycin III] (CLGIGSCNDFAGCGYAVVCFW-OH; disulfide 1-13, 7-19 (inferred); lactam N-9 (inferred); C-terminus assumed) | 2 to 100 µM and 3 µM | 3 to 100 µM | 3 to 100 µM | 3 to 100 µM | 25 µM (≈ 54.1 µg/mL) | > 100 µM | 50 µM (≈ 108 µg/mL) | 50 µM (≈ 108 µg/mL) | IC50 ([1]; read-out: IC50 Escherichia coli RNAP, lacUV5-12 DNA fragment, 37° C., listed as Siamycin III): 2 µM; IC50 ([2]; read-out: IC50 Thermus thermophilus RNAP, lacUV5-12 DNA fragment, 37° C.): 2 to 100 µM and 2 µM; IC50 ([2]; read-out: IC50 Thermus thermophilus RNAP, lacUV5-12 DNA fragment, 37° C., listed as Siamycin III): 3 µM; IC50 ([3]; read-out: IC50 Escherichia coli RNAP, T7 A1 promoter, listed as Siamycin III): 3 µM; IC50 ([4]; read-out: IC50 Bacillus subtilis RNAP, Bacillus cereus hlyII promoter, listed as Siamycin III): 3 µM; IC50 ([5]; read-out: IC50 Bacillus cereus RNAP, Bacillus cereus hlyII promoter, listed as Siamycin III): 5 µM; IC50 ([6]; read-out: IC50 Escherichia coli RNAP, T7A1 promoter, 37° C.): 5 µM; IC50 ([6]; read-out: IC50 Escherichia coli RNAP, T7A1 promoter, 37° C., listed as Siamycin III): 5 to 6 µM; IC50 ([7]; read-out: IC50 Thermus thermophilus RNAP, T7A1 promoter, 65° C.): 6 µM; IC50 ([7]; read-out: IC50 Thermus thermophilus RNAP, T7A1 promoter, 65° C., listed as Siamycin III): 5 to 6 µM |
| CC[C@H](C)[C@@H]1NC(=O)[C@H](C)NC(=O)[C@H](Cc2ccc(O)cc2)NC(=O)CNC(=O)[C@@H]2CSSC[C@@H]3NC(=O)C[C@H](NC(=O)[C@H](CC(N)=O)NC(=O)[C@H](CSSC[C@@H](C(=O)N[C@@H](Cc4ccccc4)C(=O)N[C@@H](Cc4c[nH]c5ccccc45)C(=O)O)NC(=O)[C@H](C(C)C)NC1=O)NC(=O)[C@H](CO)NC(=O)CNC(=O)[C@H](C(C)C)NC(=O)CNC(=O)[C@H](CC(C)C)NC3=O)C(=O)N[C@@H](Cc1ccccc1)C(=O)N[C@@H](C)C(=O)NCC(=O)N2 [siamycin I] (CLGVGSCNDFAGCGYAIVCFW-OH; disulfide 1-13, 7-19 (inferred); lactam N-9 (inferred); C-terminus assumed) | 100 µM | 100 µM | 40 µM | 40 µM | 25 µM (≈ 54.1 µg/mL) | > 100 µM | 50 µM (≈ 108 µg/mL) | 50 µM (≈ 108 µg/mL) | IC50 ([3]; read-out: IC50 Escherichia coli RNAP, T7 A1 promoter, listed as Siamycin I): 3 to 100 µM; IC50 ([4]; read-out: IC50 Bacillus subtilis RNAP, Bacillus cereus hlyII promoter, listed as Siamycin I): 3 to 100 µM; IC50 ([5]; read-out: IC50 Bacillus cereus RNAP, Bacillus cereus hlyII promoter, listed as Siamycin I): 3 to 100 µM |
